Test results from article doi:10.1101/2025.09.25.678687.
No constants are given. Whether binding was seen depends on the method and setting. Binding seen in cells or lysates may run through a third protein. A yes stands for co-enrichment or nearness to the bait. Other partners may have been found.

Amino acid sequences for entries named in this document (tags omitted).
UniProt P15559: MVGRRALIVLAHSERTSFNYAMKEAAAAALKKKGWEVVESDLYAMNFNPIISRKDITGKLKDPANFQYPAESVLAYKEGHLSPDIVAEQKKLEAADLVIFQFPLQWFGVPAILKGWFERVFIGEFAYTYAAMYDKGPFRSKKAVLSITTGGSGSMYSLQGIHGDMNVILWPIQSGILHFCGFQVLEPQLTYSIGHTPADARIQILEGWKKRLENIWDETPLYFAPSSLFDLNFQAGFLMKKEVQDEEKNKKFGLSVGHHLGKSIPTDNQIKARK

Biological target: Flag-tagged NQO1 (NAD(P)H quinone dehydrogenase 1), expressed in Mia-PaCa2 cells (UniProt P15559)
Experiment: affinity purification with mass spectrometry

Binder	binding
G3BP2, endogenous in Mia-PaCa2 cells (protein, UniProt Q9UN86 1-482) MVMEKPSPLLVGREFVRQYYTLLNKAPEYLHRFYGRNSSYVHGGVDASGKPQEAVYGQNDIHHKVLSLNFSECHTKIRHVDAHATLSDGVVVQVMGLLSNSGQPERKFMQTFVLAPEGSVPNKFYVHNDMFRYEDEVFGDSEPELDEESEDEVEEEQEERQPSPEPVQENANSGYYEAHPVTNGIEEPLEESSHEPEPEPESETKTEELKPQVEEKNLEELEEKSTTPPPAEPVSLPQEPPKAFSWASVTSKNLPPSGTVSSSGIPPHVKAPVSQPRVEAKPEVQSQPPRVREQRPRERPGFPPRGPRPGRGDMEQNDSDNRRIIRYPDSHQLFVGNLPHDIDENELKEFFMSFGNVVELRINTKGVGGKLPNFGFVVFDDSEPVQRILIAKPIMFRGEVRLNVEEKKTRAARERETRGGGDDRRDIRRNDRGPGGPRGIVGGGMMRDRDGRGPPPRGGMAQKLGSGRGTGQMEGRFTGQRR	binds
TIA1, endogenous in Mia-PaCa2 cells (protein, UniProt P31483 1-386) MEDEMPKTLYVGNLSRDVTEALILQLFSQIGPCKNCKMIMDTAGNDPYCFVEFHEHRHAAAALAAMNGRKIMGKEVKVNWATTPSSQKKDTSSSTVVSTQRSQDHFHVFVGDLSPEITTEDIKAAFAPFGRISDARVVKDMATGKSKGYGFVSFFNKWDAENAIQQMGGQWLGGRQIRTNWATRKPPAPKSTYESNTKQLSYDEVVNQSSPSNCTVYCGGVTSGLTEQLMRQTFSPFGQIMEIRVFPDKGYSFVRFNSHESAAHAIVSVNGTTIEGHVVKCYWGKETLDMINPVQQQNQIGYPQPYGQWGQWYGNAQQIGQYMPNGWQVPAYGMYGQAWNQQGFNQTQSSAPWMGPNYGVQPPQGQNGSMLPNQPSGYRVAGYETQ	binds
